This series has as its system Gaussia luciferase. The experiment in a line: Substrate specificity, luminescence activity and emission spectra of Gaussia luciferase. The conditions noted are these: 22 to 25° C.
As for `O=c1c(Cc2cccc(O)c2)nc2c(Cc3ccccc3)[nH]c(-c3ccc(O)cc3)cn1-2` [3iso-CTZ, 3-isocoelenterazine], the “Maximum emission wavelength λmax (nm)” value amounted to 477.0 nm.

Turning to `Cc1cccc(Cc2nc3c(Cc4ccccc4)[nH]c(-c4ccc(O)cc4)cn-3c2=O)c1` [3me-CTZ, 3me-coelenterazine], the “Maximum emission wavelength λmax (nm)” value amounted to 475.5 nm.

Turning to `COc1cccc(Cc2nc3c(Cc4ccccc4)[nH]c(-c4ccc(O)cc4)cn-3c2=O)c1` [3meo-CTZ, 3meo-coelenterazine], the “Maximum emission wavelength λmax (nm)” value worked out at 474.5 nm.

In the case of `O=c1c(Cc2ccc(C(F)(F)F)cc2)nc2c(Cc3ccccc3)[nH]c(-c3ccc(O)cc3)cn1-2` [cf3-CTZ, cf3-coelenterazine], the “Maximum emission wavelength λmax (nm)” value was 476.5 nm.

Turning to `Oc1ccc(-c2cn3c(O)c(Cc4ccccc4)nc3c(Cc3ccccc3)n2)cc1` [h-CTZ, h-coelenterazine, reference compound], the “Maximum emission wavelength λmax (nm)” value is reported as 474.0 nm.

In the case of `Cc1ccc(Cc2nc3c(Cc4ccccc4)[nH]c(-c4ccc(O)cc4)cn-3c2=O)cc1` [me-CTZ, me-coelenterazine], the “Maximum emission wavelength λmax (nm)” value is 475.0 nm.

Take `COc1ccc(Cc2nc3c(Cc4ccccc4)[nH]c(-c4ccc(O)cc4)cn-3c2=O)cc1` [meo-CTZ, meo-coelenterazine]: the “Maximum emission wavelength λmax (nm)” value was found to be 475.5 nm.

`CC(c1ccccc1)c1nc2c(Cc3ccccc3)[nH]c(-c3ccc(O)cc3)cn-2c1=O` (centres unmarked) [αmeh-CTZ, αmeh-coelenterazine]: the “Maximum emission wavelength λmax (nm)” value turned out to be 473.0 nm.

Take “coelenterazine [CTZ, reference compound]”: the “Maximum emission wavelength λmax (nm)” value was determined as 473.0 nm.

On to et-coelenterazine [et-CTZ], for which the “Maximum emission wavelength λmax (nm)” value was 476.0 nm.

In the case of “i-coelenterazine [i-CTZ, reference compound]”, the “Maximum emission wavelength λmax (nm)” value is on record as 475.0 nm.
